Substitutions are numbered along the chain they refer to. These are yes or no findings as the source states them, for the method shown. Some results given as binding are weak or reduced against the parent protein; the word gives no strength.

Amino acid sequences for entries named in this document (tags omitted). Residues count along the entry.
UniProt P28907, residues 43-300: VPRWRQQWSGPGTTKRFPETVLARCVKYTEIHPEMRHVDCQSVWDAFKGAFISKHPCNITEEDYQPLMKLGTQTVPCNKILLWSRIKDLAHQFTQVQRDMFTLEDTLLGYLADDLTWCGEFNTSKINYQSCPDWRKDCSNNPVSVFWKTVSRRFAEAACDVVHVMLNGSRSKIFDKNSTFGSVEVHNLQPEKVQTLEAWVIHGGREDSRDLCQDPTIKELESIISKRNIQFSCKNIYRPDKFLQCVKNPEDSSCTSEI

The chains are these.
B1: C38C4 (antibody, V domains shown)
VH: EVQLVQSGAEVKKPGASVKVSCKVSGYTLTELSMHWVRQAPGKGLEWMGGFDPEDGETIYAQKFQGRVTMTEDTSTDTAYMELSSLRSEDTAVYYCATENSNYVYFQHWGQGTLVTVSS
VL: QSALTQPPSASGAPGQRVTISCSGSSANIGSNTVDWYQKLPGTAPRLLIYNDDHRPSGVPDRFSASTSGNTASLTIAGAQAEDEGDYYCNSRDNNDQHYVFGSGTKVTVL
B2: C38D10 (antibody, V domains shown)
VH: QVQLVESGGGLVQPGGSLRLSCAASGFTVSGNYMNWVRQAPGKGLEWVSVIYSGGDTYYADSVKGRFTVSRDNSKNTLYLQMNSLTAEDTAVYYCAREYSGYYYGMDVWGQGTTVTVSS
VL: QSVLTQPHSASGTPGQRVTISCSGSSSNIGGNTVNWYQQLPGTAPRLLIYTNNKRPSGVPDRFSGSKSGTSASLAISGLQSEDEADYYCAAWDNSLKGYVFGTGTKLTVL
B3: C38C9 (antibody, V domains shown)
VH: EVQLVESGGGVVQPGRSLRLSCAASGFTFSSYDMHWVRQATGKGLEWVSAIGTAGDTYYPGSVKGRFTISRDNSKNTLYLQMNSLRAEDTAVYYCARDSWFGELSLDYWGQGTLVTVSS
VL: QAVVTQAPSVSAAPGQKVTISCSGSSSNIGNNYVSWYQQLPGTAPKLLIYDNNKRPSGIPDRFSGSKSGTSATLGITGLQTGDEADYYCGTWDSSLSAAVFGGGTKLTVL
B4: C38F8 (antibody, V domains shown)
VH: QVQLVQSGAEVKKPGESLEISCKDFGDSFTNYWIGWVRQMPGKGLEWMGIIYPGDSDTRYSPSFQGQVTISADKSINTAYLQWSSLKASDTAMYYCATFSRELMGFGAWGQGTLVTVSS
VL: B3 VL with A2S, V4L, A7P, A13T, K17R, T73I, G75D, A99E, G103T
B5: C38D11 (antibody, V domains shown)
VH: QVQLQQWGAGLLKPSETLSLTCAVYGGSFNGYYWSWIRQPPGKGLEWIGEINHSGSTNYNPSLKSRPTISVDTSKNQFSLNLSSVTAADTAVYYCARAGTVYYYYGMDVWGQGTTVTVSS
VL: B3 VL with A2S, A7P, S26N, G30A, G90E, A99V
B6: C38A1 (antibody, V domains shown)
VH: QVQLVESGAEVKKPGASVKVSCRASGYTFTNYHLHWVRQAPGQGLEWVGTINPRGGSTTYAQKFQGRVAMTSDTSTSTVYMEVNRLRSDDTAVYFCARGSDNALADFYNYYDMDVWGQGTTVTVSS
VL: B3 VL with A7P, K54E, D61G, A99G
B7: C38B1 (antibody, V domains shown)
VH: EVQLLESGAEVKKPGASVKVSCKASGYTFTSYGISWVRQAPGQGLEWMGWISAYNGNTNYAQKLQGRVTMTTDTSTSTAYMELRSLRSDDTAVYYCARTDLLYCSSTSCYHNGVGMDVWGQGTTVTVSS
VL: QAVLTQPPSASGSPGQSVTISCTGTSSDVGGYNYVSWYQQHPDKAPKLIIYEVTKRPSGVPGRFSGSKSGNTASLTVSGLQAEDEADYYCGSYAGNNNYVFGTGTKVTVL
B8: C38D1 (antibody, V domains shown)
VH: EVQLVQSGGGVVQPGRSLRVSCAASGFTFSSYGMHWVRQTPGKGLEWVAGIWYDENDKYYADSVKGRFTISRDNSKNTLHLQMNSLRAEDTAVYYCARQFRDYYFDVWGRGTLVTVSS
VL: QSALTQPPSVSAAPGQKVTISCSGSSSNIGNNYVSWYQQLPGTAPKLLIYDNNKRPSGIPDRFSGSKSGTSATLGITGLQTGDEADYYCGTWDSSLGGVFGTGTKLTVL
B9: C38D5 (antibody, V domains shown)
VH: QVQLQQWGAGLLKPSETLSLTCAVYGGSFSGYYWSWIRQPPGKGLEWIGEINHSGSTNYNPSLKSRVTISVDTSKNQFSLKLSSVTAADTAVYYCAREGLRHSFDIWGQGTMVTVSS
VL: QSVVTQPPSVSAAPGQKVTISCSGSNSNIGSNYVSWYQHLPGTAPKLLIYDNNNRPSGIPDRFSGSKSGTSATLGITGLQTGDEANYYCATWDTSLSGWVFGGGTKLTVL
B10: C38D2 (antibody, V domains shown)
VH: QVQLVQSGSEVKKPGASLHLSCKASGYTFINHYMHWVRQAPGQGLEWMGVINPRGGSTTYAQKFQGRVAMTTDTSTYTVYMEVNSLRSDDTAVYFCARGSDNALADYYNSYDMDVWGQGTTVTVSS
VL: AIRMTQSPSSLSASVGDRVTITCRASQGISSALAWYQQKPGKAPKLLIYDASSLESGVPSRFSGSGSGTDFTLTISSLQPEDFATYYCQQANSFPLTFGQGTKLEIK
B11: C38G8 (antibody, V domains shown)
VH: EVQLLESGGGLVQPGRSLRLSCAASGFTFSSYGMHWVRQAPGKGLEWVSYISSSSSTIYYADSVKGRFTISRDNAKNSLYLQMNSLRDEDTAVYYCARDEDYYYGMDVWGQGTTVTVSS
VL: DIVMTQTPSSLSASVGDRVTITCQASQDINGYLNWYQQKPGKAPKLLIYGASNLEKGVPSRFSGSGSGTDFTFTVSSLQSEDIATYYCQQYDDLPLTFGAGTKVEIK
B12: C38B7 (antibody, V domains shown)
VH: QVQLVQSGAEVKKPGSSVKVSCKSSGGTLRNYVINWVRQAPGQGLEWMGRITPFLGESESAQKFQNRVTITADTSINTAYMELSSLRSEDTAVYYCARETVGATAADWYFDLWGRGTLVTVSS
VL: QSVLTQPASVSGSPGQSITISCTGTSSDVGAYNYVSWYQQLPGTAPKVLSYSNDHRPSGVPDRFSGSKSGTSASLAISGLQSEDEADYYCAAWDDSLNNYVFGTGTKVTVL

The experiment has as its target human CD38 (human) (UniProt P28907). In words: selection of antibodies, method not described.
On to B1, for which the binding result is “binds”.
As to B2, the binding result is on record as “binds”.
The result for B3 reads “binds”; that for B4, “binds”.
The value for B5 was “binds”; that for B6 was “binds”; that for B7 was “binds”.
The result for B8 reads “binds”.
Take B9: the binding result is on record as “binds”.
As for B10, the binding result is listed as “binds”.
B11: the binding result is reported as “binds”.
The result for B12 reads “binds”.

(Values after patent publication US20170291959A1.)
